Data on four molecules can be found in publication PMC3639976.

Sequences of proteins named here, by UniProt entry; tags and fusion partners are left off. A change or cut given only in a name is not applied to a line headed by its entry.
UniProt O43318: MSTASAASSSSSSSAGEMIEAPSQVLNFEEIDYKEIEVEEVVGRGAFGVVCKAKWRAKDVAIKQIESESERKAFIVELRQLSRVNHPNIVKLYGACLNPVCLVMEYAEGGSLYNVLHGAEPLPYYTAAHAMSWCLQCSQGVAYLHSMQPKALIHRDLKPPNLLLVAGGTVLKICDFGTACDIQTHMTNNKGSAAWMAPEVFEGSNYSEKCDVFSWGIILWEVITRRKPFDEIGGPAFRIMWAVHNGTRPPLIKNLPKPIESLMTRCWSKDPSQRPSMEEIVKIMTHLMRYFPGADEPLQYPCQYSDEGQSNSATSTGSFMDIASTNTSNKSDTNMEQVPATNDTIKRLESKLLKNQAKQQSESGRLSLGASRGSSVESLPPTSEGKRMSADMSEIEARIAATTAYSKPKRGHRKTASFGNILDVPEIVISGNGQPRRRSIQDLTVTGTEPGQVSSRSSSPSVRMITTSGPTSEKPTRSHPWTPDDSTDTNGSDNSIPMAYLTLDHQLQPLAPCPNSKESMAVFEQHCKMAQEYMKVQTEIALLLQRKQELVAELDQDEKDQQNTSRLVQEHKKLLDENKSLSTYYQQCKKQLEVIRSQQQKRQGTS
UniProt P04792: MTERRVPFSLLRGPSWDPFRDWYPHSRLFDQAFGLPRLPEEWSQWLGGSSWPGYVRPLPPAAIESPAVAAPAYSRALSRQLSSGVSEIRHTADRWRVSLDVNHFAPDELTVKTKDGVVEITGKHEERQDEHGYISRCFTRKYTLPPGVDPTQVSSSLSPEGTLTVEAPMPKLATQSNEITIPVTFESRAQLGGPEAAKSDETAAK

Test [1] addresses GFP-tagged TAK1 (UniProt O43318). Kind of test: co-IP; HEK293IL-1R cells transfected, GFP-TAK1 or GFP-TAB1 alone (no co-expressed MYC-TAB1); pulldown with GFP-Trap_A agarose beads, 2 h at 4°C, washes with lysis buffer (0,5 M NaCl); immunoblotting. Background: A western blot detects proteins with antibodies after separation by electrophoresis.
The target is the same in test [2]. Description: co-IP; HEK293IL-1R cells transfected, GFP-TAK1 co-expressed with MYC-TAB1; pulldown with GFP-Trap_A agarose beads, 2 h at 4°C, washes with lysis buffer (0,5 M NaCl); immunoblotting.
Test [3] shares this target. Kind of test: co-IP; HEK293IL-1R cells transfected, GFP-TAK1 or GFP-TAB1 alone (no co-expressed MYC-TAB1); pulldown with GFP-Trap_A agarose beads, 2 h at 4°C, washes with lysis buffer (0,5 M NaCl); immunoblotting. This is another data set of the same source.

No constants are given. Whether binding was seen depends on the method and setting. Binding seen in cells or lysates may run through a third protein. A result given as binding can be weak or reduced; the word gives no strength. For some of these results: Sequences can lack the tags named with a protein.

Take “3xFLAG-PPARβ/δ (from UniProt P35396 1-440)”: the binding entry with GFP-tagged TAK1 [1] and in the test with GFP-tagged TAK1 [2] was “binds” throughout.

In the case of “HA-tagged HSP27 (from UniProt P04792 1-205)”, the binding result with GFP-tagged TAK1 [1] and with GFP-tagged TAK1 [2] was “binds” each time.

B1: 3xFLAG-PPARβ/δ 166–440 (domain or fragment, UniProt P35396 166-440)
chain: QHNPQLADLKAFSKHIYNAYLKNFNMTKKKARSILTGKSSHNAPFVIHDIETLWQAEKGLVWKQLVNGLPPYNEISVHVFYRCQSTTVETVRELTEFAKNIPNFSSLFLNDQVTLLKYGVHEAIFAMLASIVNKDGLLVANGSGFVTHEFLRSLRKPFSDIIEPKFEFAVKFNALELDDSDLALFIAAIILCGDRPGLMNVPQVEAIQDTILRALEFHLQVNHPDSQYLFPKLLQKMADLRQLVTEHAQMMQWLKKTESETLLHPLLQEIYKDMY
Consider B1, for which the binding entry in the test with GFP-tagged TAK1 [3] and in the test with GFP-tagged TAK1 [2] was “binds” each time.

B2: MYC-tagged TAB1 (protein, UniProt Q15750 1-504)
chain: MAAQRRSLLQSEQQPSWTDDLPLCHLSGVGSASNRSYSADGKGTESHPPEDSWLKFRSENNCFLYGVFNGYDGNRVTNFVAQRLSAELLLGQLNAEHAEADVRRVLLQAFDVVERSFLESIDDALAEKASLQSQLPEGVPQHQLPPQYQKILERLKTLEREISGGAMAVVAVLLNNKLYVANVGTNRALLCKSTVDGLQVTQLNVDHTTENEDELFRLSQLGLDAGKIKQVGIICGQESTRRIGDYKVKYGYTDIDLLSAAKSKPIIAEPEIHGAQPLDGVTGFLVLMSEGLYKALEAAHGPGQANQEIAAMIDTEFAKQTSLDAVAQAVVDRVKRIHSDTFASGGERARFCPRHEDMTLLVRNFGYPLGEMSQPTPSPAPAAGGRVYPVSVPYSSAQSTSKTSVTLSLVMPSQGQMVNGAHSASTLDEATPTLTNQSPTLTLQSTNTHTQSSSSSSDGGLFRSRPAHSLPPGEDGRVEPYVDFAEFYRLWSVDHGEQSVVTAP
Regarding B2, the binding entry with GFP-tagged TAK1 [2] is “binds”.
